Measurements as given in paper PMC3858230.
No constants are given. Whether binding was seen depends on the method and setting. In cells and extracts the contact can be indirect. Some binding calls cover weakened binding; strength is not graded here. Where a sequence is shown, tags or fusion partners need not be part of it.

Molecular target: T1, Biotp-Fctwt: F cytoplasmic tail (wt TYTLE) fused to a peptide containing a biotinylation site (Sendai virus) (UniProt P04855)
T1 sequence (chain, biotin on the biotinylation site of Biotp): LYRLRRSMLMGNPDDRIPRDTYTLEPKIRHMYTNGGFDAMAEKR
Assay: pull-down; streptavidin agarose pull-down of biotinylated Biotp fusions from lysates of infected α-gfpt siRNA MDCK cells, 30 h post infection; lysing buffer I (NaCl 10 mM, Tris-HCl pH 8.0 50 mM, NP40 0.6%); 2 h at 4°C; 5 washes with NET buffer; Western blot with α-M

B1: Sendai virus matrix protein M (protein, UniProt P06446 1-348)
chain: MADIYRFPKFSYEDNGTVEPLPLRTGPDKKAIPHIRIVKVGDPPKHGVRYLDLLLLGFFETPKQTTNLGSVSDLTEPTSYSICGSGSLPIGVAKYYGTDQELLKACTDLRITVRRTVRAGEMIVYMVDSIGAPLLPWSGRLRQGMIFNANKVALAPQCLPVDKDIRLRVVFVNGTSLGAITIAKIPKTLADLALPNSISVNLLVTLKTGISTEQKGVLPVLDDQGEKKLNFMVHLGLIRRKVGKIYSVEYCKSKIERMRLIFSLGLIGGISFHVQVNGTLSKTFMSQLAWKRAVCFPLMDVNPHMNMVIWAASVEITGVDAVFQPAIPRDFRYYPNVVAKNIGRIRKL
binding: binds
